Experimental data reported in the M2OR odorant receptor database.
The list shows a part of the results, in another mix than the full data. The calls were merged from several studies; some rest on single wells. The list shows a part of the results.

Chains of the proteins cited; added tags and fusions are not shown. Where a name states a change or a piece, a line headed by the entry shows the natural chain unless it says otherwise. Chains listed by the source or under a name are the forms on record and can include a tag or linker.
UniProt Q8NGI6: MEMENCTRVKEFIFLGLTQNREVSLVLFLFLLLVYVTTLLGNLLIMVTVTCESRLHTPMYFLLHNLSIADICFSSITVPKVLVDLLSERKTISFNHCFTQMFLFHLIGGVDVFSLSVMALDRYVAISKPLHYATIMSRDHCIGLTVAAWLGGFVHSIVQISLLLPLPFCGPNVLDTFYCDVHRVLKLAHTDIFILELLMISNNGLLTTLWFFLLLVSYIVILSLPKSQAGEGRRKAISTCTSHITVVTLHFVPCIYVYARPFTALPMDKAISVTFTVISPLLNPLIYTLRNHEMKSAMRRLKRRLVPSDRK
UniProt Q8NGI4: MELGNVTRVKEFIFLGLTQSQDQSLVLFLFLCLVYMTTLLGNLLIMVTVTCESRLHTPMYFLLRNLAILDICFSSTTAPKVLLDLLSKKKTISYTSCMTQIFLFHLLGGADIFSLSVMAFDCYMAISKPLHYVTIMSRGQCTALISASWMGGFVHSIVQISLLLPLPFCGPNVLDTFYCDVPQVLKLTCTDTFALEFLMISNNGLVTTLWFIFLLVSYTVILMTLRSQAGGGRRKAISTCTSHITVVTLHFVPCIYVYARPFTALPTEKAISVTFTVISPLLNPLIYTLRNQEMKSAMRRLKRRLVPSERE
UniProt Q8NGN0: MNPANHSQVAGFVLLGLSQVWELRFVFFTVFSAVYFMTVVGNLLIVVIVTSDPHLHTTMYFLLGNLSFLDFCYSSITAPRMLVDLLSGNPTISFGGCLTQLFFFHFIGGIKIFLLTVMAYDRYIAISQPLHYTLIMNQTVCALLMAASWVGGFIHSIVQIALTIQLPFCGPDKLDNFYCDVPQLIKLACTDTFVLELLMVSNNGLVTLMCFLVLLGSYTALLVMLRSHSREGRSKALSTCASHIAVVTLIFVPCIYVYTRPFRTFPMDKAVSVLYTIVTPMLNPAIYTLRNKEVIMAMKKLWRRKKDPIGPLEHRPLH
UniProt Q8NGE8: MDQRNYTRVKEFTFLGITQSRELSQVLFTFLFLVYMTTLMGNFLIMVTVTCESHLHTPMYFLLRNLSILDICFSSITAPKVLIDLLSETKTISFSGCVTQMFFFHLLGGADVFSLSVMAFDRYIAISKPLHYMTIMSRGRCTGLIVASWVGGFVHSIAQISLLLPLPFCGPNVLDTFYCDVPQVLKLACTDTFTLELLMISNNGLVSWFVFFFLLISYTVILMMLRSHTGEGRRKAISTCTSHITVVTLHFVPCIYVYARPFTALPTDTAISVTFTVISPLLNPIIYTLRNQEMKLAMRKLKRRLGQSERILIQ
UniProt P0C645: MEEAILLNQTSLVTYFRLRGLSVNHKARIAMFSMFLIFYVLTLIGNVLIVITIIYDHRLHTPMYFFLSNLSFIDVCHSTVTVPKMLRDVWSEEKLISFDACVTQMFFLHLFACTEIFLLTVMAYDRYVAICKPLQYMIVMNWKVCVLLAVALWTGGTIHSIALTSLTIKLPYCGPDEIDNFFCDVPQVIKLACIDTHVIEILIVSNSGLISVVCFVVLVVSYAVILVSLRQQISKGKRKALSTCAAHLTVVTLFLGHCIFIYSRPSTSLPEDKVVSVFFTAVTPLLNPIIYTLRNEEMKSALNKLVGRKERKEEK
OR4D1, as listed by the source: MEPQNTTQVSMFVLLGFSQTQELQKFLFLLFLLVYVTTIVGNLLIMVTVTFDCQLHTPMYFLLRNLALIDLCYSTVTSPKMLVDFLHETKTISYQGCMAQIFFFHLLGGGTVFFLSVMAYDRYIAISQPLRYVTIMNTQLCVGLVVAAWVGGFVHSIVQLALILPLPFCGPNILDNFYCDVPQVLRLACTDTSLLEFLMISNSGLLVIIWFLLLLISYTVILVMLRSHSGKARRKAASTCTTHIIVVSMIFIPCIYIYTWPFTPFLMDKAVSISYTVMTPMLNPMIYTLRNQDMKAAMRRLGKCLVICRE
OR4CF, as listed by the source: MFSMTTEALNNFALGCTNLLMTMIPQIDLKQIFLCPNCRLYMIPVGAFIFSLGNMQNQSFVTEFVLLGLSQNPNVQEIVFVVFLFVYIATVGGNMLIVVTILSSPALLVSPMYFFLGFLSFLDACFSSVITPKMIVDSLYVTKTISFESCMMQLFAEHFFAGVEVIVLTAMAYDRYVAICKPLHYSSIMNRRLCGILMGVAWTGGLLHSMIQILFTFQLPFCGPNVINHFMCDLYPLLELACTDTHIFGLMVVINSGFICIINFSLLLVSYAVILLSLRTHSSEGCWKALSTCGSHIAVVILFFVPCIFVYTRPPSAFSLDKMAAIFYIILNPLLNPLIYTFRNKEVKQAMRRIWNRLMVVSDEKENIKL
OR4D6, as listed by the source: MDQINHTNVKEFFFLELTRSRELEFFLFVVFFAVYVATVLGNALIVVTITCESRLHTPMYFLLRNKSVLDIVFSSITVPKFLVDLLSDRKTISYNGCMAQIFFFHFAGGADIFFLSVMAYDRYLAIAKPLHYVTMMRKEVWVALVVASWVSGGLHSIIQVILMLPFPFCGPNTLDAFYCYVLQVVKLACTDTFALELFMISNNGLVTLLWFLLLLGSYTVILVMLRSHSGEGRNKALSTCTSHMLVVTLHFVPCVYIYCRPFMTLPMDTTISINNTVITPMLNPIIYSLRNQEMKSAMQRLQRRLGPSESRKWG
OR4D2, as listed by the source: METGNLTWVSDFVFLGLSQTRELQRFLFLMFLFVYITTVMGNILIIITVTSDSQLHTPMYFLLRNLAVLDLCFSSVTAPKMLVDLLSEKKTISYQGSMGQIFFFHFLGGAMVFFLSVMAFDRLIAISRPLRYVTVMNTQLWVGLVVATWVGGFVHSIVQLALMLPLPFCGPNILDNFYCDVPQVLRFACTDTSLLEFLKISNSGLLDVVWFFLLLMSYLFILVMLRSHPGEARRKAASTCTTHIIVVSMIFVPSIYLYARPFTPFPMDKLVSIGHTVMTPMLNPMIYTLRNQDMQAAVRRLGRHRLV

Experiments:
Conditions in all cases: stereoisomer not certain
[1] = test system: OR4CF
In short: (§1)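 Transient luciferase assays in mammalian cell lines were common, though methods varied by source. The values come from published papers and their supplementary material, with extra details from the original authors when needed. Responsive refers to a measured signal the original authors judged statistically different from baseline, and non-responsive (inactive) to the remainder.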

[2] = test system: T1, OR4CG
T1 sequence (whole entry): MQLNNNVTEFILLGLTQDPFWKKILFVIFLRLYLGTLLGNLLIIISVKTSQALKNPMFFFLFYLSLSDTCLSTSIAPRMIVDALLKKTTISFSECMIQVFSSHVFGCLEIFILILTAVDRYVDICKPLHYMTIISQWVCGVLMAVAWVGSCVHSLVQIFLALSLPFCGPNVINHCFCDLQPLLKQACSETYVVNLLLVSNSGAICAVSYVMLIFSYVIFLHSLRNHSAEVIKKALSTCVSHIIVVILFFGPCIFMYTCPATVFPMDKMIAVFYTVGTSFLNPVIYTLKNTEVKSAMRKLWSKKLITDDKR
In short: as §1

[3] = biological target: OR4D10 (Homo sapiens) (UniProt Q8NGI6)
In short: as §1

[4] = biological target: OR4D11 (Homo sapiens) (UniProt Q8NGI4)
In short: as §1

[5] = test system: OR4D1
In short: as §1

[6] = test system: OR4D2
In short: as §1

[7] = biological target: OR4D5 (Homo sapiens) (UniProt Q8NGN0)
In short: as §1

[8] = test system: OR4D6
In short: as §1

[9] = biological target: OR4D9 (Homo sapiens) (UniProt Q8NGE8)
In short: as §1

[10] = test system: T2, OR4E2
T2 sequence (whole entry): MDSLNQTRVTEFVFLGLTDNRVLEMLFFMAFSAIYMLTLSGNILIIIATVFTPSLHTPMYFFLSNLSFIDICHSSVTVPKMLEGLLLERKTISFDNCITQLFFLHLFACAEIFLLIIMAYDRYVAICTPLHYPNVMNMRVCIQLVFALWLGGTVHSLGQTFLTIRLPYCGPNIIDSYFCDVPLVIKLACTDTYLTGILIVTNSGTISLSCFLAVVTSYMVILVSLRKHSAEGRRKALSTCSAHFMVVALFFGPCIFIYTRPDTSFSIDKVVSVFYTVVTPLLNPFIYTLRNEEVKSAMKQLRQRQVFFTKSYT
In short: as §1

[11] = biological target: T3, OR4F15 (Homo sapiens) (UniProt Q8NGB8)
T3 sequence (whole entry): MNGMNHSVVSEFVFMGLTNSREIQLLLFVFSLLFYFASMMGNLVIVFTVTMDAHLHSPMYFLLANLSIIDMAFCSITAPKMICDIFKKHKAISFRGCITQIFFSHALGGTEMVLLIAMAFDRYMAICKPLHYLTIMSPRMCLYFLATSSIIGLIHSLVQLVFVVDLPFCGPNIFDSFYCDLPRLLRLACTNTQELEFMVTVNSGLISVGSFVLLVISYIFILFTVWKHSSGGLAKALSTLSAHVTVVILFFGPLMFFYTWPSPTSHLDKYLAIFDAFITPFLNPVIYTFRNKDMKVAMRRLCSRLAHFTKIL
In short: as §1

[12] = biological target: T4, OR4F3 (Homo sapiens) (UniProt Q6IEY1)
T4 sequence (whole entry): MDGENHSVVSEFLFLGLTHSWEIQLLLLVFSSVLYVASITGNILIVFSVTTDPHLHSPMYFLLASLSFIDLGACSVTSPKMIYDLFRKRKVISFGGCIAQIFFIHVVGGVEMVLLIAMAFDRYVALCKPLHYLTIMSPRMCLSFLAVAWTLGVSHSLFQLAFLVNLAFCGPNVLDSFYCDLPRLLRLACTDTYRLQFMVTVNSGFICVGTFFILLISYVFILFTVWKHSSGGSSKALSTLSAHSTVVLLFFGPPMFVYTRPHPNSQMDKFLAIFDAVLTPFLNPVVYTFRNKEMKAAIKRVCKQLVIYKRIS
In short: as §1

[13] = test system: T5, OR4F3
T5 sequence (whole entry): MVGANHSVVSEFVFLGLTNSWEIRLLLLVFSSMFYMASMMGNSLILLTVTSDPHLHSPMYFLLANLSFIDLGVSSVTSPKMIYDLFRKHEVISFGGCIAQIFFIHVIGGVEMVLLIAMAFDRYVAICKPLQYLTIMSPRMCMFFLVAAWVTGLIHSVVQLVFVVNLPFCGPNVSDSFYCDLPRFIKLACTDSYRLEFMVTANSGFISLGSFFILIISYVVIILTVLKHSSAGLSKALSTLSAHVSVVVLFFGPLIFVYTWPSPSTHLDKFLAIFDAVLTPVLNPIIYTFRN
In short: as §1

[14] = biological target: OR4E1 (Homo sapiens) (UniProt P0C645)
In short: as §1

Measured: odorant receptor agonist call

CC(=O)OC(C)(C)C1CC=C(C)CC1 (stereo unspecified)
not listed: [14]
inactive: all other assays above

C=CC(C)(O)CCC=C(C)C (stereo unspecified)
not listed: [14]
inactive: all other assays above

CCC=CCCO
not listed: [14]
inactive: all other assays above

CCCC(=O)O
not listed: [14]
inactive: all other assays above

CC(=O)c1ccccc1
not listed: [2] | [7] | [14]
inactive: all other assays above

CC(C)(O)CCCC1=CCC(C=O)CC1 (stereo unspecified)
inactive: [2] | [7]

CC(=O)C(C)=O
not listed: [14]
inactive: all other assays above

CC1COCc2cc3c(cc21)C(C)(C)C(C)C3(C)C (stereo unspecified)
active: [5] | [9] | [10] | [11] | [12]
not listed: [1]
inactive: all other assays above

O=C1CCCCC1
not listed: [2] | [7] | [14]
inactive: all other assays above

CCC1(O)C2(C)CCC(C2)C1(C)C (stereo unspecified)
not listed: [14]
inactive: all other assays above

CCCCCC(C)=O
not listed: [2] | [7] | [14]
inactive: all other assays above

CCCCCCOC(=O)CCC
not listed: [14]
inactive: all other assays above

CC(C)(C)c1ccc(CCC=O)cc1
not listed: [14]
inactive: all other assays above

CC1=NC(C)SC1C (stereo unspecified)
not listed: [2] | [7] | [14]
inactive: all other assays above

COC(=O)c1ccccc1O
not listed: [14]
inactive: all other assays above

CC1CCC(C(C)C)C(O)C1 (stereo unspecified)
not listed: [5] | [14]
inactive: all other assays above

COC(=O)c1ccccc1
active: [13]
not listed: [2] | [7] | [14]
inactive: all other assays above

CC12CCC(C1)C(C)(C)C2=O (stereo unspecified)
active: [7]
not listed: [14]
inactive: all other assays above

C=C(C)C1CCC2=CC(=O)CC(C)C2(C)C1 (stereo unspecified)
active: [7]
inactive: [2]

CC(C)CC(=O)O
not listed: [14]
inactive: all other assays above

COc1ccccc1O
not listed: [14]
inactive: all other assays above

CCCCCCCC=CC=O
active: [2] | [13]
not listed: [5] | [14]
inactive: all other assays above

CCCCO
not listed: [14]
inactive: all other assays above

CC(C)C(=O)O
not listed: [14]
inactive: all other assays above

CC=Cc1ccc(O)c(OC)c1
active: [2] | [7]
not listed: [1] | [14]
inactive: all other assays above

CC(C)CCC(=O)O
not listed: [14]
inactive: all other assays above

CCCCCCCOC(C)=O
not listed: [14]
inactive: all other assays above
